The whole screen tested about 31,000 sequences, of which about 1,400 (4.5%) were called active.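 The calls were made as follows: active = median seed-adjusted z-score above 1 or below -1; inactive = the rest.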 This is one part of the list.
Assay: Novel Modifiers of Survival Motor Neuron (SMN) Protein: Gene Identification via Genome-wide siRNA Screen;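 also: luminescence tracks full-length SMN protein made from the SMN2 reporter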
Details: HEK293T SMN2-luciferase reporter, siRNA knockdown, 72 h; actives lie on both sides
Summary of the method: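 Steps: spot 1 pmol siRNA, add Lipofectamine RNAiMax in serum-free DMEM, seed HEK293T SMN2–luciferase reporter cells; incubate 72 h at 37 °C; add ONE-Glo; normalize luminescence to control siRNA, log10, MAD. Candidates: |MAD| > 1.0.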

Q: For CGAUCUCCAGUUUAGCGGATT against ZFP106, which median seed-adjusted z-score is on record?
A: inactive: 0.286

Q: For GAAAAUAUCCUGAUCAUAUTT against MC2R, which median seed-adjusted z-score is on record?
A: inactive: 0

Q: Which median seed-adjusted z-score does the source give for CGCAAACAAGCACACCUUATT against ZNF501 here?
A: inactive: 0.19

Q: For CCAGUGUAUGUUCUCCUUUTT against TRMT12, which median seed-adjusted z-score is on record?
A: inactive: 0.352

Q: For CCUUACUUCUGACAACAGATT against IL23R, which median seed-adjusted z-score is on record?
A: inactive: 0.512

Q: Which median seed-adjusted z-score does the source give for GCAAAGCUAUUGCAUUGAATT against HSDL2 here?
A: inactive: -0.0717

Q: Which median seed-adjusted z-score does the source give for CGAUAGAUAGUACAGGUAUTT against SP3 here?
A: inactive: -0.0943

Q: For GCACCGUCUGAUCAUCAAATT against DNAJC11, which median seed-adjusted z-score is on record?
A: inactive: 0.148

Q: Which median seed-adjusted z-score does the source give for GGAUUAUAUUCAUCGAAUUTT against DDX5 here?
A: inactive: 0.891

Q: Which median seed-adjusted z-score does the source give for GGAACAACCAUACAGAUCATT against CDH20 here?
A: inactive: -0.397

Q: With CAAAGAGACAAGUCCUAAATT against TTC15 as the sequence, how does the median seed-adjusted z-score read?
A: inactive: -0.235

Q: For GGAUUGAAGAUACUACAAATT against THOC1, which median seed-adjusted z-score is on record?
A: active: -3.04

Q: Which median seed-adjusted z-score does the source give for GCCUUUGCUUGUGUAUUCATT against KRTAP5-7 here?
A: inactive: -0.279

Q: With GUCGGGAUCUCAGAGGAAATT against PTRF as the sequence, how does the median seed-adjusted z-score read?
A: inactive: -0.0151

Q: With GGCAUCAAGUUGACCAUCATT against LCK as the sequence, how does the median seed-adjusted z-score read?
A: inactive: 0.676

Q: With GAACCAACUCGGAUAUUGUTT against MEF2A as the sequence, how does the median seed-adjusted z-score read?
A: inactive: -0.0658

Q: With GGAUCAUGGUUUACGUUUUTT against SLC13A1 as the sequence, how does the median seed-adjusted z-score read?
A: inactive: 0.183

Q: With AGCCUUCAAUAGAUCUUCATT against ZNF562 as the sequence, how does the median seed-adjusted z-score read?
A: inactive: -0.0954

Q: With GAAUGUAUCAGCUACCGAUTT against HYAL4 as the sequence, how does the median seed-adjusted z-score read?
A: inactive: -0.236

Q: Which median seed-adjusted z-score does the source give for CAAUUGGAGGGUUAGAUGATT against KLHL8 here?
A: inactive: -0.835

Q: For AGAGAGCCGUGGAAUUCCATT against RAB5C, which median seed-adjusted z-score is on record?
A: inactive: -0.529

Q: For GCAUACCUCAGUUCCAAGATT against CDY2A, which median seed-adjusted z-score is on record?
A: inactive: 0.75

Q: With CAUCAUCACCAAACUCAAATT against P2RX6 as the sequence, how does the median seed-adjusted z-score read?
A: inactive: -0.351

Q: With CCCAGACGCAAGACAGUAATT against RBMX2 as the sequence, how does the median seed-adjusted z-score read?
A: inactive: -0.585

Q: For CAUCAAGUCUGUGACCGAATT against FABP1, which median seed-adjusted z-score is on record?
A: inactive: -0.302

Q: Which median seed-adjusted z-score does the source give for CCUGCACUUUUGCACCCAATT against EDN3 here?
A: inactive: -0.427

Q: For GCGAGAAGUUUGUUGCAGATT against RDH16, which median seed-adjusted z-score is on record?
A: inactive: 0.421

Q: With CUGCUUACCUAUAUCCCAATT against SLC25A44 as the sequence, how does the median seed-adjusted z-score read?
A: inactive: -0.0685

Q: For GUGACUAUGAGCUCAAAUATT against RAVER1, which median seed-adjusted z-score is on record?
A: inactive: -0.0873

— PubChem BioAssay AID1347426 (Functional Genomics Laboratory (NCATS/FGL), 2020)
